Source: paper PMC10675959
These are yes or no findings as the source states them, for the method shown. In cells and extracts the contact can be indirect. Some binding calls cover weakened binding; strength is not graded here.

Chains of the proteins cited; added tags and fusions are not shown.
UniProt P17677: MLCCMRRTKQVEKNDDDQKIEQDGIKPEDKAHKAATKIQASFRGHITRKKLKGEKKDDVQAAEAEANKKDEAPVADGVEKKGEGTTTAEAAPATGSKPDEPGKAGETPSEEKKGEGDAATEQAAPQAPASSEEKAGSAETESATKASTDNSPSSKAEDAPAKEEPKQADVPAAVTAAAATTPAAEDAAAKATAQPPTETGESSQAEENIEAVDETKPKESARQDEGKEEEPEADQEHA
UniProt Q14258: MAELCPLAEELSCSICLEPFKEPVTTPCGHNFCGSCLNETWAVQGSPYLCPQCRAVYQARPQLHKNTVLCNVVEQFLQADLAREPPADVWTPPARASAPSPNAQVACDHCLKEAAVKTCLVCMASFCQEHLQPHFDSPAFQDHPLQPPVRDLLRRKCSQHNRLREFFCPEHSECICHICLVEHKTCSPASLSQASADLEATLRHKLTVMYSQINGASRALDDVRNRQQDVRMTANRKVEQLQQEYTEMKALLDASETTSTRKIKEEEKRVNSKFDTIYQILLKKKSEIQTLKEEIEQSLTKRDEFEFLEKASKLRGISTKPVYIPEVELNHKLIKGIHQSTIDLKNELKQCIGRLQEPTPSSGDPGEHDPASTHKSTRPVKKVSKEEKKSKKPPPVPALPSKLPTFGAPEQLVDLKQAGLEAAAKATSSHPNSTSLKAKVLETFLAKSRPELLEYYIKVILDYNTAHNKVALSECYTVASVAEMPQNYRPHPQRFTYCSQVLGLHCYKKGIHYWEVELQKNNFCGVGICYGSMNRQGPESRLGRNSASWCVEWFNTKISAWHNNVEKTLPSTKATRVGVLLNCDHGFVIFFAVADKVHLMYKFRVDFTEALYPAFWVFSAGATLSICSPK

How the values were obtained:
[1] = biological target: growth-associated protein 43 (human (endogenous in umbilical cord MSCs)) (UniProt P17677); test: co-IP; Hyp-MSCs lysed in Co-IP buffer, GAP43 antibody at 4 °C overnight, magnetic beads 4 h, western blot for TRIM25; cells transfected with HIF-1α siRNA or control
[2] = biological target: growth-associated protein 43 (human (endogenous in umbilical cord MSCs)) (UniProt P17677); test: condition: only in Hyp-MSCs with HIF-1α overexpression; co-IP; Hyp-MSCs transfected with HIF-1α overexpressing plasmid; lysed in Co-IP buffer, GAP43 antibody at 4 °C overnight, magnetic beads 4 h, western blot for TRIM25

binding [1]: binds
binding [2]: no binding
Substance: tripartite motif-containing protein 25 (from UniProt Q14258 1-630) (enzyme)
